Measurements reported in patent publication US7820212B2, “Abietane diterpenoid compound, and composition comprising extract of Torreya nucifera, or abietane diterpenoid compounds or terpenoid compounds isolated from them for prevention and treatment of cardiovascular disease” (Korea Research Institute of Bioscience and Biotechnology, priority 2004, dated 2010).
At least one compound was matched to its structure with a doubt left.

tested on: LDL; experiment: Anti-oxidative activity to LDL by TBARS method (Cu2+ mediated LDL-oxidation); assay type: biochemical, human; conditions: 37° C. 4 hours, MDA by TBARS
Description: Cu^2+ is known to mediate LDL-oxidation. Thus, in the present invention, dialdehyde, which is an oxidation product of unsaturated fatty acid formed during Cu^2+ mediated LDL-oxidation, was measured by thiobarbituric acid reactive substances (TBARS) method in order to investigate the LDL anti-oxidative activity of T. nucifera extracts or abietane diterpenoid compound separated from the same (Ahn, B. T. et. al., Low-density Lipoprotein-Antioxidant Constituents of Saururus Chinensis, J. Nat. Prod. 64: 1562, 2001). Centrifugation was performed with 300 ml of human blood plasma by using a ultracentrifuge at 100,000×g for 24 hours to remove floating VLDL/chylomicron layer in the upper part. The specific gravity of the remaining solution was adjusted to 1.063 g/ml. Centrifugation was performed again at 100,000×g for 24 hours, and 25 ml of the floating LDL (1.5˜2.5 mg protein/ml) in the upper layer was separated. […] T. nucifera extracts or abietane diterpenoid compound isolated from the same was dissolved in DMSO (dimethylsulfoxide), and the solution was diluted at different concentrations before use. Only a solvent was added to a negative control, while probucol was added to a positive control. 10 μl of 0.25 mM CUSO4 was added to the solution, followed by further reaction at 37° C. for 4 hours. Then, the reaction was quenched by adding 1 ml of 20% trichloroacetic acid (TCA). 1 ml of 0.67% thiobarbituric acid (TBA) solution dissolved in 0.05 N NaOH solution was added to the solution, followed by stirring for 10 seconds. The solution was heated at 95° C. for 5 minutes to induce coloring, then cooled down in ice water. Centrifugation was performed at 3000 rpm for 5 minutes to separate supernatant. OD540 was measured with a UV/VIS spectrophotometer. Malondialdehyde (MDA) detected by the above coloring was quantified. PBS standard solution containing 0˜10 nmol MDA was prepared by 250 μl with tetramethoxypropane malonaldehyde bis (dimethylacetal) storage solution. […] MDA was quantified by using the standard curve in experiments with T. nucifera extracts or abietane diterpenoid compound isolated from the same.

Structure (SMILES)	IC50 [nM]
COC(=O)[C@]1(C)CCC[C@]2(C)c3cc(O)c(C(C)C)cc3CCC12 (stereo partly shown) [R = methylester, 12-hydroxyabietic-8,11,13-trien-18-oic acid methylester]	1100
CC(C)c1cc2c(cc1O)[C@@]1(C)CCC[C@@](C)(C=O)C1CC2 (stereo partly shown) [R = aldehyde, 18-oxoferruginol]	920
COC(OC)[C@]1(C)CCC[C@]2(C)c3cc(O)c(C(C)C)cc3CCC12 (stereo partly shown) [R = dimethoxymethyl, 12-hydroxyabietic-8,11,13-trien-18-dimethylacetal]	1800
CC(C)c1cc2c(cc1O)[C@@]1(C)CCC[C@@](C)(CO)C1CC2 (stereo partly shown) [R = hydroxymethyl, 18-hydroxyferruginol]	430
